Reference: patent publication US20150246024A1 (priority 2012, published 2015)

Test system: S. aureus RN4220
Test: Selection of resistant S. aureus variants on agar
Type: cell-based

| Compound | frequency of resistant colonies (Mueller-Hinton agar, gradient 10-200 μM compound 1771, 2×10^9 CFU) | frequency of resistant mutants (LB agar, filter disk, 2.4×10^7 CFU) |
| --- | --- | --- |
| O=C(COC(=O)Cc1coc2ccc3ccccc3c12)Nc1nnc(-c2ccccc2)o1 [Compound 1771, 2-oxo-2-[(5-phenyl-1,3,4-oxadiazol-2-yl)amino]ethylnaphtho[2,1-b]furan-1-ylacetate] | ≤ 2×10^−9 |  |
| [H]/N=C(/N)N[C@H]1[C@H](O)[C@@H](O)[C@H](O[C@@H]2O[C@@H](C)[C@](O)(C=O)[C@H]2O[C@@H]2O[C@@H](CO)[C@H](O)[C@@H](O)[C@@H]2NC)[C@@H](N/C(N)=N\[H])[C@@H]1O [streptomycin, reference compound] |  | < 10^−7 |
